Where two headings read alike, the source gives them in different places. No constants are given. Whether binding was seen depends on the method and setting. For some of these results: Binding seen in cells or lysates may run through a third protein. Some entries that bind do so weakly or less than the wild type. Sequences can lack the tags named with a protein. Values belong to the binder of their own block, whether it stands above or below them.
Experiments:
[1] = molecular target: T1, PLS fused to the GAL4 DNA-binding domain (bait, pBD-GAL4 Cam) (Arabidopsis thaliana) (UniProt Q8LLV8); assay: two-hybrid
T1 sequence: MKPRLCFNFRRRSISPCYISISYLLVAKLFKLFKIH

[2] = molecular target: T2, PLS linked to a C-terminal GFP (p35S::PLS:GFP) (Arabidopsis thaliana) (UniProt Q8LLV8); assay: co-IP
T2 sequence: T1 sequence

[3] = molecular target: T3, ETR1 with a C-terminal HA tag (p35S::ETR1:HA) (Arabidopsis) (UniProt P49333); assay: co-IP
T3 sequence: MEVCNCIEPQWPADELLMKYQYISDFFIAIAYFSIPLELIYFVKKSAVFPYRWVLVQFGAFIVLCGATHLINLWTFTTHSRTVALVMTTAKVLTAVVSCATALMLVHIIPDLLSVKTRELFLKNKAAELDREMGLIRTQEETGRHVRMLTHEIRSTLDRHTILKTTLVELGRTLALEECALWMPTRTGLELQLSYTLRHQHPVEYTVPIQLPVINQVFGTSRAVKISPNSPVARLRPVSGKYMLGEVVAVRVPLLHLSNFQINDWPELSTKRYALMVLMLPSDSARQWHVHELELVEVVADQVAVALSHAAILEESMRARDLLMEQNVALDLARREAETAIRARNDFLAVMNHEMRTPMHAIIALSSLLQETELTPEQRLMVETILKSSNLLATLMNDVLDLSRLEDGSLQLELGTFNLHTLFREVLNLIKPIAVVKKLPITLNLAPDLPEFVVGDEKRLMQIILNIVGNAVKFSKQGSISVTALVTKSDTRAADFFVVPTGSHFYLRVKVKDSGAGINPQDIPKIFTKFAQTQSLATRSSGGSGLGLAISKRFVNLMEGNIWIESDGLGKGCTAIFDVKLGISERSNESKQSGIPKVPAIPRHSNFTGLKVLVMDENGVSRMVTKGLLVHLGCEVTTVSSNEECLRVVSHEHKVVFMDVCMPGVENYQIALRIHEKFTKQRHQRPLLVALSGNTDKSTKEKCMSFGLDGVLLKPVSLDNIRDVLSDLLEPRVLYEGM

[4] = molecular target: T3, ETR1 with a C-terminal HA tag (p35S::ETR1:HA) (Arabidopsis); assay: co-IP; remark: listed apart in the source

binding [1]: binds
B1: ETR1 fused to the GAL4 activation domain (target, pAD-GAL4-2.1) (receptor, UniProt P49333 1-738)
chain: T3 sequence

binding [2]: binds
B2: ETR1 with a C-terminal HA tag (p35S::ETR1:HA) (receptor, UniProt P49333 1-738)
chain: T3 sequence

binding [3]: binds | binding [4]: binds
Binder: MKPRLCFNFRRRSISPCYISISYLLVAKLFKLFKIH (peptide, UniProt Q8LLV8 1-36) [PLS linked to a C-terminal GFP (p35S::PLS:GFP)]

Source: paper doi:10.1101/2023.06.15.545071
